Laboratory results as given in publication PMC9813255.
These are yes or no findings as the source states them, for the method shown. Binding seen in cells or lysates may run through a third protein. For some assays here: Binding can be weak; no strength is given. Where a sequence is shown, tags or fusion partners need not be part of it.

Key:
[1] = target: Myc-Htt (Exon1-17Q); assay: co-IP; U2OS cells transiently expressing FLAG-FL-PQBP5 and Myc-Htt or Myc-Atxn1, harvested 48 h after transfection; lysis in TNE buffer, Protein-G Sepharose
[2] = target: Myc-Htt (Exon1-103Q); assay: as above

B1: FLAG-FL-PQBP5 (protein, UniProt Q9BSC4-1 1-688)
chain: MQVSSLNEVKIYSLSCGKSLPEWLSDRKKRALQKKDVDVRRRIELIQDFEMPTVCTTIKVSKDGQYILATGTYKPRVRCYDTYQLSLKFERCLDSEVVTFEILSDDYSKIVFLHNDRYIEFHSQSGFYYKTRIPKFGRDFSYHYPSCDLYFVGASSEVYRLNLEQGRYLNPLQTDAAENNVCDINSVHGLFATGTIEGRVECWDPRTRNRVGLLDCALNSVTADSEINSLPTISALKFNGALTMAVGTTTGQVLLYDLRSDKPLLVKDHQYGLPIKSVHFQDSLDLILSADSRIVKMWNKNSGKIFTSLEPEHDLNDVCLYPNSGMLLTANETPKMGIYYIPVLGPAPRWCSFLDNLTEELEENPESTVYDDYKFVTKKDLENLGLTHLIGSPFLRAYMHGFFMDIRLYHKVKLMVNPFAYEEYRKDKIRQKIEETRAQRVQLKKLPKVNKELALKLIEEEEEKQKSTWKKKVKSLPNILTDDRFKVMFENPDFQVDEESEEFRLLNPLVSKISEKRKKKLRLLEQQELREKEEEEEPEGKPSDAESSESSDDEKAWVEEVRKQRRLLQQEEKVKRQERLKEDQQTVLKPQFYEIKAGEEFRSFKDSATKQKLMNKTLEDRLKIEAKNGTLSVSDTTVGSKQLTFTLKRSEQQKKQQEAEKLHRQERKRLRRSAGHLKSRHKRGRSFH
B1 was tested, and the binding [1] was “no binding” and the binding [2] was “binds”.
